# In PubChem BioAssay AID588590 (National Center for Advancing Translational Sciences (NCATS), 2011):
# Protein sequences, listed by entry. Tags and fused reporters are not part of them. Lines headed by an entry give the natural chain unless they say otherwise; changes in a name come on top.
# UniProt Q9UNA4: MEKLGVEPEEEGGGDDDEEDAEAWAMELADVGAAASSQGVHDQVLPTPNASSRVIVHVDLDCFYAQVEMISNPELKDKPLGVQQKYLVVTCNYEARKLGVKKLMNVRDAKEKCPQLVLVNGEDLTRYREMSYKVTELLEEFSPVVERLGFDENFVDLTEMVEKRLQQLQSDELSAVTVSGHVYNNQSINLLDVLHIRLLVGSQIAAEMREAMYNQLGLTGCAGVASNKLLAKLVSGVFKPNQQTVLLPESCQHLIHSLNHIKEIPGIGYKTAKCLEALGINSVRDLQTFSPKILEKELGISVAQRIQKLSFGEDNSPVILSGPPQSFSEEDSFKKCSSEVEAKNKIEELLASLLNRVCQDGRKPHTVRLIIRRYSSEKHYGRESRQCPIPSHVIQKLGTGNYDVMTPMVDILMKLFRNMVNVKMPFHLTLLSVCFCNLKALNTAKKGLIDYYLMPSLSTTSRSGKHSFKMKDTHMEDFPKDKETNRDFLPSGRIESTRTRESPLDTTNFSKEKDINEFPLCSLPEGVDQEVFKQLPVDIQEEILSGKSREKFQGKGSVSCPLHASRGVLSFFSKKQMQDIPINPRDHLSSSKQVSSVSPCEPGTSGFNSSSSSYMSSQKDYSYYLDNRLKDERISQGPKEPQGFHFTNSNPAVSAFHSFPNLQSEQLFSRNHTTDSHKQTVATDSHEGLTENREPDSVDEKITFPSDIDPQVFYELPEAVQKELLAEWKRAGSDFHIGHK
# The whole screen tested about 390,000 compounds, of which about 4,000 (1%) were called active. The inconclusive results got no clear call from the source; some entries with a clear call stand among them for comparison. Calls come from the whole dose curve; as a rule, active = well fitted inhibition curve with a large enough effect; inconclusive = small, poorly fitted or top-dose-only effect, or another doubt; inactive = no such curve, though single readings can be large or run the other way. Where the call is inconclusive, the potency comes from a doubtful curve fit.
# Biological target: DNA polymerase iota (Homo sapiens) (UniProt Q9UNA4)
# Experiment: qHTS for Inhibitors of Polymerase Iota
# Conditions: Pol iota fluorescent replication assay, 10 min; series mostly up to 115 µM
# Method in brief: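 Pol iota at 10 nM preincubated 15 min with compounds at room temperature; reaction started with fluorescent substrate, 50 nM final. Fluorescence read kinetically at 0 and 10 min; buffer-only wells as negative control.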
# Potency is the fitted concentration of half-maximal effect.
row,SMILES,Potency
1,O=c1c(=O)n(-c2ccc(F)c(F)c2)ccn1Cc1ccc(F)cc1Cl,inactive
2,Cc1ccc2c(=O)cc(C(=O)Nc3sc4c(c3C(=O)NCC3CCCO3)CCC4)oc2c1 (stereo unspecified),"inconclusive: 89.1 µM [inhibitor, single point]"
3,CC1=NN(C(N)=S)C(=O)C1N=Nc1c(C)n(C)n(-c2ccccc2)c1=O (stereo unspecified),"inconclusive: 35.5 µM [inhibitor, single point]"
4,CCOc1ccc(-n2nc3ccc(NC(=O)c4ccc(OC)c(Cl)c4)cc3n2)cc1,inactive
5,CN(C)c1c(Cl)cc(/C=C/c2ccnc3ccccc23)cc1Br,"inconclusive: 89.1 µM [inhibitor, single point]"
6,Nc1nnc(SCc2ccccc2)n1-c1ccccc1,inactive
7,COC(=O)c1sc2nc(CN3CCN(c4cccc(C(F)(F)F)c4)CC3)[nH]c(=O)c2c1C,inactive
8,C(=C\c1ccnc2ccccc12)/c1ccc(N2CCOCC2)cc1,"inconclusive: 56.2 µM [inhibitor, single point]"
9,COc1ccc(Cl)cc1C=CC=Nc1ccc(S(N)(=O)=O)cc1,"inconclusive: 89.1 µM [inhibitor, partial curve, poor fit]"
10,COc1cc(/C=C2/SC(=Nc3ccc(O)cc3)NC2=O)cc(OC)c1O,"inconclusive: 12.6 µM [inhibitor, full curve, poor fit]"
11,COc1ccc(Oc2ccc(C(F)(F)F)cc2NC(=O)c2ccc(OC)cc2)cc1,"inconclusive: 28.2 µM [inhibitor, single point]"
12,CCOc1ccccc1NC(=O)N(Cc1ccc(C)o1)C1CCN(C(C)=O)CC1,inactive
13,CCCCC[C@@H](/C=C/C1C(=O)C=C[C@H]1C/C=C\CCCC(=O)O)OC(C)=O (stereo partly specified),"inconclusive: 22.4 µM [inhibitor, full curve]"
14,C[n+]1ccc(/C=C/c2cc[n+](C)c3ccccc23)c2ccccc21,"inconclusive: 50.1 µM [inhibitor, partial curve]"
15,O=C(CN1C(=O)CSc2ccc(S(=O)(=O)N3CCOCC3)cc21)NCc1cccnc1,"inconclusive: 44.7 µM [inhibitor, partial curve, poor fit]"
16,CC(=O)c1c(C)[nH]c(C(=O)OCC(=O)NCc2ccc(Cl)cc2)c1C,inactive
17,CCc1ccccc1NC1=NCC(=O)N1Cc1ccccc1,"inconclusive: 22.4 µM [inhibitor, single point]"
18,Cc1cccc(C)c1NC(=O)CSC(=S)N1CCCC1,"inconclusive: 89.1 µM [inhibitor, single point]"
19,COc1cccc(C(=O)Nc2ccc3[nH]ncc3c2)c1,"inconclusive: 89.1 µM [inhibitor, single point]"
20,O=C(NCC1COc2ccccc2O1)C1C2C=CC3(CN(Cc4ccccc4Cl)C(=O)C13)O2 (stereo unspecified),"inconclusive: 5.01 µM [inhibitor, partial curve, poor fit]"
21,CCOc1ccc(-c2ccc(/C=C3/C(=N)N4C(C)=CSC4=NC3=O)o2)c([N+](=O)[O-])c1,active: 39.8 µM

# 2 compounds picked at random from the list so far:
row,SMILES,Potency
2,Cc1ccc2c(=O)cc(C(=O)Nc3sc4c(c3C(=O)NCC3CCCO3)CCC4)oc2c1 (stereo unspecified),"inconclusive: 89.1 µM [inhibitor, single point]"
1,O=c1c(=O)n(-c2ccc(F)c(F)c2)ccn1Cc1ccc(F)cc1Cl,inactive

# Later entries.

row,SMILES,Potency
1,CCC(=O)Nc1ccc(C(=O)Cn2ncc(Cl)c(Cl)c2=O)cc1,"inconclusive: 44.7 µM [inhibitor, partial curve, poor fit]"
2,CSc1cccc(NC(=O)Nc2ccccc2OCc2cc(=O)n3cc(C)ccc3n2)c1,inactive
3,CC(C)CN(CCNC(=O)CC1Oc2ccccc2NC1=O)CC(C)C (stereo unspecified),"inconclusive: 63.1 µM [inhibitor, single point]"
4,O=C(COc1ccc2ccccc2c1)Nc1ccc2c3c(cccc13)CC2,"inconclusive: 22.4 µM [inhibitor, partial curve, poor fit]"
5,CCCc1ccc(O)c(N=Cc2cc(Br)cc(OCC)c2O)c1,"inconclusive: 50.1 µM [inhibitor, partial curve, poor fit]"
6,CCOc1ccc2c(c1)/C(=C(\C(Cl)=C(Cl)Cl)[N+](=O)[O-])N2,"inconclusive: 31.6 µM [inhibitor, partial curve, poor fit]"
7,Cc1ccc(S(=O)(=O)n2nc(-c3ccc(Cl)cc3)nc2NCc2ccc(F)cc2)cc1,"inconclusive: 3.98 µM [inhibitor, full curve, poor fit]"
8,O=C(O)C(O)c1ccco1 (stereo unspecified),"inconclusive: 10 µM [inhibitor, partial curve, poor fit]"
9,Cc1nc2sc3c(c2c(=O)o1)CCC3,"inconclusive: 14.1 µM [inhibitor, full curve, poor fit]"
10,C/C(Cl)=C/CN1C(=O)C2C3C=CC(C3)C2C1=O (stereo unspecified),inactive
11,COc1ccc(-c2[nH]c(-c3ccc(Cl)cc3)nc2SCC(=O)NCC2CCCO2)cc1 (stereo unspecified),"inconclusive: 100 µM [inhibitor, single point]"
12,CC(=O)Nc1cccc(C(=O)NCC2(N3CCCCC3)CCCCC2)c1,inactive
13,COc1ccc(NC(=O)CCc2nc3ccccc3s2)c(OC)c1,"inconclusive: 39.8 µM [inhibitor, partial curve, poor fit]"
14,CC(C)C[C@@H]1NC(=O)[C@H](C(C)C)NC(=O)c2cc([N+](=O)[O-])cc(I)c2NCC[C@@H](C(N)=O)NC1=O,"inconclusive: 22.4 µM [inhibitor, partial curve, poor fit]"
15,C=CCNC(=O)c1onc(CSc2nc3ccccc3[nH]2)c1C(=O)NCC=C,"inconclusive: 39.8 µM [inhibitor, single point]"
16,CC[C@]1(C(=O)OC)[C@H]2C(=O)N(C)C(=O)[C@H]2[C@H]2CN=C(SCc3ccc(C#N)cc3)N21,"inconclusive: 28.2 µM [inhibitor, partial curve]"
17,CCOC(=O)c1ccc(N=c2sc(C(=O)OC)cc(=O)n2Cc2ccc3c(c2)OCO3)cc1,"inconclusive: 0.708 µM [inhibitor, partial curve, poor fit]"
18,N#Cc1c(/N=C/c2ccc(-c3ccc(C(=O)O)c(Cl)c3)o2)sc2c1CCCC2,inactive
19,CCOc1cc2c(C#N)c(N(CC)CC)nc(N)c2c(N)n1,active: 10 µM
20,CC(/C=C/c1ccccc1)=N\NC(=O)Cn1cncn1,"inconclusive: 70.8 µM [inhibitor, partial curve, poor fit]"
